{
  "sequences": {"note": "Amino acid sequences for entries named in this document (tags omitted).", "UniProt Q9Y4B6": "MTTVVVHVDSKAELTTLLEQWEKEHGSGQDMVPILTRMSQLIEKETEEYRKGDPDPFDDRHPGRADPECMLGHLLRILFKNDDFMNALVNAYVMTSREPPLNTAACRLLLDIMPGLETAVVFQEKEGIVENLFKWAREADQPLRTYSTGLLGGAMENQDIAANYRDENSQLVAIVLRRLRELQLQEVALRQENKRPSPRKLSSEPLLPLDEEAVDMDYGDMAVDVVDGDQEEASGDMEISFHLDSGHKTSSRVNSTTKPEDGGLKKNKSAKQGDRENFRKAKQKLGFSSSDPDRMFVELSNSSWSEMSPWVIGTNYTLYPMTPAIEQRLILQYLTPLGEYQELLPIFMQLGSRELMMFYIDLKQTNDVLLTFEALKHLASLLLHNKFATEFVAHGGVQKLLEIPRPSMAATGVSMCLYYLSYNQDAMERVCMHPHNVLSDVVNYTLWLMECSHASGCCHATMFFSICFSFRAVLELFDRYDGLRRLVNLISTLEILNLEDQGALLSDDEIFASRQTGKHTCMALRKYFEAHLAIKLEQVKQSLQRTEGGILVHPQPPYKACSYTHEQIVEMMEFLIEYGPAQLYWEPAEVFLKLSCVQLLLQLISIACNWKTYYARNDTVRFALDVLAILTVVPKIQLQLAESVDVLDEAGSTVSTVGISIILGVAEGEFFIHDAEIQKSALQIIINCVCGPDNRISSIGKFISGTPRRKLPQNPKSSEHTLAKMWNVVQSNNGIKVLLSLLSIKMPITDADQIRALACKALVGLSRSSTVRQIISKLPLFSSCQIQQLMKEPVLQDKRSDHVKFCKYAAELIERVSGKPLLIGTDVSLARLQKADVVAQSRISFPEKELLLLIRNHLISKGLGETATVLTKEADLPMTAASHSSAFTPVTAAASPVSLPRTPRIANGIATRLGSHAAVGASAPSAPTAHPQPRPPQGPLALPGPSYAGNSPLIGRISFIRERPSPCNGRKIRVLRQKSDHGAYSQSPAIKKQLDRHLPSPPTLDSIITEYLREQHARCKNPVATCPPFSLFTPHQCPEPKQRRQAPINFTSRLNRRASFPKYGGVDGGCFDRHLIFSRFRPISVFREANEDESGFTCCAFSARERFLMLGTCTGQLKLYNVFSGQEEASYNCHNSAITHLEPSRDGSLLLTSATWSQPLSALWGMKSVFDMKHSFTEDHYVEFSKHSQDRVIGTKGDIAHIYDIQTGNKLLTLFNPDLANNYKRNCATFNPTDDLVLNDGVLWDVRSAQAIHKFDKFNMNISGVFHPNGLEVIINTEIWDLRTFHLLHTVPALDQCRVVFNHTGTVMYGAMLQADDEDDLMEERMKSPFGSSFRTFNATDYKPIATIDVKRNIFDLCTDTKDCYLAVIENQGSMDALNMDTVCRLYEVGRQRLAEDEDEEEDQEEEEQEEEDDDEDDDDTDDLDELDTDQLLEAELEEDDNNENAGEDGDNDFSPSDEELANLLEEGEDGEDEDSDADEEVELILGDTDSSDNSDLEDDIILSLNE"},
  "source": "paper PMC4126725",
  "biological_target": "T1, Myc-TRIM11 (human) (UniProt Q96F44)",
  "T1 sequence": "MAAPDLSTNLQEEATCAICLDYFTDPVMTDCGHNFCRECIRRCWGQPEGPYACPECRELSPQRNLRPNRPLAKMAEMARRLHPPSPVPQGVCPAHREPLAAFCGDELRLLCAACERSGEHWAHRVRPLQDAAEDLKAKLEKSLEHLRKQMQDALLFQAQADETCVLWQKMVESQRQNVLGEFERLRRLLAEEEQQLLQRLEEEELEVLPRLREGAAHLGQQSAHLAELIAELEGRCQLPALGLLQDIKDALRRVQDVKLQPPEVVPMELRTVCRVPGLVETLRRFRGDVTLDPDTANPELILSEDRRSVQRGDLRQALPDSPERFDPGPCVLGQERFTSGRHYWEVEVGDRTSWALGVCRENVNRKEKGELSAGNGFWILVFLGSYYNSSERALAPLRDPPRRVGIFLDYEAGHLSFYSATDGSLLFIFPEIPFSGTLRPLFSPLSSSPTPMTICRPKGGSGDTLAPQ",
  "test": "co-IP; HEK293 cells cotransfected with TRIM11-Myc, Vpr-Flag and VprBP-HA vectors; lysates 24 h after transfection; protein G agarose with 1 ug control mouse IgG, anti-Myc or anti-HA MAb, overnight at 4°C; immunoblotting",
  "note": "Results are given in words; binding and its absence hold for the method and conditions named. In cells and extracts the contact can be indirect. Sequences can lack the tags named with a protein.",
  "data": [
    {"substance": "VprBP-HA (from UniProt Q9Y4B6 1-1507)", "values": [
      {"measurement": "binding", "result": "no binding"}
    ]}
  ]
}
